In patent US20100143920A1, “Surfactant Protein D is a Biomarker for Steroid Responsiveness in Asthma and Chronic Obstructive Pulmonary Disease” (The Trustees of the University of Pennsylvania, priority 2007, published 2010):
For at least one compound, name, drawing or mass did not settle the structure.

Columns and labels:
BALF levels of SP-D = settings: asthmatic mice, cited from earlier work
SP-D mRNA = experiment: Alveolar type II cell culture, Northern blot for SP-D mRNA; type: cell-based; settings: type II alveolar epithelial cells from adult rat lungs, cultured 4 days, dexamethasone 10 ng/ml; p=0.041
SP-D = experiment: Alveolar type II cell culture, Western blot for SP-D protein; type: cell-based; settings: type II alveolar epithelial cells from adult rat lungs, cultured 4 days, dexamethasone 10 ng/ml; p=0.037

C[C@@H]1C[C@H]2[C@@H]3CCC4=CC(=O)C=C[C@]4(C)[C@@]3(F)[C@@H](O)C[C@]2(C)[C@@]1(O)C(=O)CO [dexamethasone]
total cell number and eosinophils recovered in BALF (BALF levels of SP-D): substantially reducing
elevated BALF levels of SP-D (BALF levels of SP-D; two-dimensional gels and western blots): dose-dependently suppress
SP-D mRNA (Northern blot) (SP-D mRNA): raise
SP-D expression (protein, Western blot) (SP-D): significant increase
